Assay results: patent US20150024955A1, “Methods of Identifying Modulators of Dephosphorylation of Histone Deacetylase” (THE J. DAVID GLADSTONE INSTITUTES, priority 2006, published 2015)

T1: FLAG-tagged human HDAC7 (human) (UniProt Q8WUI4)
T1 sequence (looked up): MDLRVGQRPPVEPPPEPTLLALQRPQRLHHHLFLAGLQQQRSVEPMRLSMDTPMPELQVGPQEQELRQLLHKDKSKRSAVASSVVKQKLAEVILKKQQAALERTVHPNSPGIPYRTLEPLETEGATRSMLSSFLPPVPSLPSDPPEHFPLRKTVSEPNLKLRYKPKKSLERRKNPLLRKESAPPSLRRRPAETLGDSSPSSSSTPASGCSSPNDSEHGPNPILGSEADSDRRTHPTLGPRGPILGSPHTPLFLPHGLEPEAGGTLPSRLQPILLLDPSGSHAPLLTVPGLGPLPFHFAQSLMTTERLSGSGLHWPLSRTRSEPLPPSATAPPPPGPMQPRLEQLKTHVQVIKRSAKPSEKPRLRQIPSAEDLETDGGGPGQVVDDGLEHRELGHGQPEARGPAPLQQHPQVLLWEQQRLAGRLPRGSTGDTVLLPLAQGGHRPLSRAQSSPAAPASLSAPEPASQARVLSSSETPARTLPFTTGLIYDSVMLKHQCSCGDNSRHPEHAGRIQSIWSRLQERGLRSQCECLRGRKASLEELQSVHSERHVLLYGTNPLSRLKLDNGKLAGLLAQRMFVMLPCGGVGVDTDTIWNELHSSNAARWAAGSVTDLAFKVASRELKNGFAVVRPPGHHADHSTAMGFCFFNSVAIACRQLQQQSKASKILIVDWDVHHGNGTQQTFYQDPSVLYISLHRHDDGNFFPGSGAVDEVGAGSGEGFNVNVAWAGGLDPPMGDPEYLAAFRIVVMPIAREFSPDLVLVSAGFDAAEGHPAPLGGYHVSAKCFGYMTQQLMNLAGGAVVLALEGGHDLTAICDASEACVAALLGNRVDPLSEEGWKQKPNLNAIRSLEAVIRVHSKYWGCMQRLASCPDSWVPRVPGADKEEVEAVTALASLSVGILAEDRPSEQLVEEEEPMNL


What was measured:
[1] = molecular target: T1, FLAG-tagged human HDAC7 (human); assay: anti-FLAG M2 immunoprecipitation from DO11.10-HDAC7-Flag cells, Coomassie gel, mass spectrometry
[2] = molecular target: T1, FLAG-tagged human HDAC7 (human); assay: anti-FLAG immunoprecipitation from DO11.10-HDAC7-Flag cells, SDS-PAGE, mass spectrometry
[3] = molecular target: T1, FLAG-tagged human HDAC7 (human); assay: immunoprecipitation and mass spectrometry

binding [1]	binding [2]	binding [3]	Binder
binds	binds	–	14-3-3 protein theta (protein, UniProt P68254 1-245, looked up) MEKTELIQKAKLAEQAERYDDMATCMKAVTEQGAELSNEERNLLSVAYKNVVGGRRSAWRVISSIEQKTDTSDKKLQLIKDYREKVESELRSICTTVLELLDKYLIANATNPESKVFYLKMKGDYFRYLAEVACGDDRKQTIENSQGAYQEAFDISKKEMQPTHPIRLGLALNFSVFYYEILNNPELACTLAKTAFDEAIAELDTLNEDSYKDSTLIMQLLRDNLTLWTSDSAGEECDAAEGAEN
binds	binds	binds	Protein phosphatase 1 regulatory subunit 12A (Myosin phosphatase targeting subunit 1) (protein, mouse, UniProt Q9DBR7 1-1029, looked up) MKMADAKQKRNEQLKRWIGSETDLEPPVVKRQKTKVKFDDGAVFLAACSSGDTDEVLKLLHRGADINYANVDGLTALHQACIDDNVDMVKFLVENGANINQPDNEGWIPLHAAASCGYLDIAEFLIGQGAHVGAVNSEGDTPLDIAEEEAMEELLQNEVNRQGVDIEAARKEEERVMLRDARQWLNSGHISDVRHAKSGGTALHVAAAKGYTEVLKLLIQAGYDVNIKDYDGWTPLHAAAHWGKEEACRILVDNLCDMETVNKVGQTAFDVADEDILGYLEELQKKQTLLHSEKRDKKSPLIESTANMENNQPQKAFKNKETLIIEPEKNASRIESLEHEKADEEEEGKKDESSCSSEEDEEDDSESEAETDKTKPMASVSNAHTSSTQAAPAAVTAPTLSSNQGTPTSPVKKFPISTTKISPKEEERKDESPASWRLGLRKTGSYGALAEISASKEAQKEKDTAGVMRSASSPRLSSSLDNKEKEKDNKGTRLAYVTPTIPRRLASTSDIEEKENRESSSLRTSSSYTRRKWEDDLKKNSSINEGSTYHRSCSFGRRQDDLISCSVPSTTSTPTVTSAAGLQRSLPSSTSTAAKTPPGSSSAGTQSSTSNRLWAEDSTEKEKDSAPTAVTIPVAPTVVNAAAPSTTTLTTTTAGTVSEVRERRRSYLTPVRDEESESQRKARSRQARQSRRSTQGVTLTDLQEAEKTIGRSRSTRTREQENEEKEKEEKEKQDKEKQEEKKESEASREDEYKQKYSRTYDETYTRYRPVSTSSSSAPSSSSLSTLGSTLYASSQLNRPNSLVGITSAYSRGLAKENEREGEKKEEEKEGEDKSQPKSIRERRRPREKRRSTGVSFWTQDSDENEQERQSDTEDGSSKRETQTDSVSRYDSSSTSSSDRYDSLLGRSASYSYLEDRKPYSSRLEKDDSTDFKKLYEQILAENEKLKAQLHDTNMELTDLKLQLEKATQRQERFADRSQLEMEKRERRALERRISEMEEELKMLPDLKADNQRLKDENGALIRVISKLSK
binds	binds	–	14-3-3 protein beta/alpha (protein, UniProt Q9CQV8 1-246, looked up) MTMDKSELVQKAKLAEQAERYDDMAAAMKAVTEQGHELSNEERNLLSVAYKNVVGARRSSWRVISSIEQKTERNEKKQQMGKEYREKIEAELQDICNDVLELLDKYLILNATQAESKVFYLKMKGDYFRYLSEVASGENKQTTVSNSQQAYQEAFEISKKEMQPTHPIRLGLALNFSVFYYEILNSPEKACSLAKTAFDEAIAELDTLNEESYKDSTLIMQLLRDNLTLWTSENQGDEGDAGEGEN

Results are given in words; binding and its absence hold for the method and conditions named. In cells and extracts the contact can be indirect. A yes stands for co-enrichment or nearness to the bait. Other partners may have been found. Sequences can lack the tags named with a protein.
